Results deposited as PubChem BioAssay AID686938 (Drosophila RNAi Screening Center, 2013)
The screen tested about 23,000 reagents; shown is an unselected part of those with a known target gene and a result. In the full data, 75 (0.33%) are marked active. 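Raw plate signals without normalisation; calls rest on plate z-scores that were not deposited; ratio present for only 364 wells.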 Names joined by + are all predicted targets of the reagent. No sequences are given here. The record does not give: the dose of the treatment.

- Assay: 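Looking for CRAC channel components and the factors controlling them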 (primary screen)
- System: Drosophila S2R+ cells
- Reagents: long dsRNA against Drosophila genes, about 0.25 µg dsRNA per well, roughly 10,000 cells
- Duration: 5 days of knock-down before the calcium assay
- Conditions: thapsigargin (SERCA pump blocker) to empty calcium stores; entry signal taken 4 min after adding it
- Measurement: 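Per-well fluo-4 fluorescence in two replicates, unnormalised, measured in resting cells and 4 min after store depletion by the SERCA blocker thapsigargin; ratio of the two present in few wells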
- Direction: calcium entry signal: higher = stronger calcium signal after store depletion; resting calcium signal: higher = higher resting calcium signal
- Active means: 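Called when the plate z-score of the entry-to-rest ratio, mean of duplicates, falls below −3; wells with low overall dye signal (Fmax z below −2) or more than five off-targets excluded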
- Calls: active = strongly reduced calcium entry; inactive = no strong reduction

gene knocked down	amplicon	calcium entry signal, replicate 1 (fluorescence units)	calcium entry signal, replicate 2 (fluorescence units)	resting calcium signal, replicate 1 (fluorescence units)	resting calcium signal, replicate 2 (fluorescence units)	Call
Rlb1	DRSC16826	3.32e7	2.81e7	1.77e7	1.63e7	inactive
TFAM	DRSC15552	4.53e7	3.82e7	1.86e7	1.67e7	inactive
Ssu72	DRSC19572	3.60e7	3.91e7	1.98e7	1.70e7	inactive
Tep2	DRSC02679	3.29e7	3.97e7	1.69e7	1.88e7	inactive
Tep2	DRSC03451	3.07e7	3.71e7	1.63e7	1.81e7	inactive
tobi	DRSC14435	2.96e7	4.64e7	1.60e7	2.08e7	inactive
CG6398	DRSC19992	3.12e7	3.58e7	1.46e7	1.64e7	inactive
Cpr47Ee	DRSC06343	1.72e7	2.26e7	1.07e7	1.31e7	inactive
Cpr47Ee	DRSC23164	4.07e7	2.81e7	2.02e7	1.38e7	inactive
CG45105	DRSC15002	3.49e7	3.45e7	1.66e7	6.55e7	inactive
CG45105	DRSC15833	2.69e7	2.49e7	5.78e7	1.38e7	inactive
CG18171	DRSC08524	3.60e7	3.96e7	1.89e7	1.80e7	inactive
Spt6	DRSC18836	1.10e7	1.16e7	7.16e6	7.70e6	inactive
rumpel	DRSC18436	3.26e7	3.48e7	1.68e7	1.86e7	inactive
CG2961	DRSC18246	4.05e7	3.85e7	1.95e7	1.93e7	inactive
Cyp9f3	DRSC16636	3.18e7	3.01e7	1.57e7	1.60e7	inactive
CG33998	DRSC05747	2.91e7	3.88e7	1.34e7	2.10e7	inactive
CG3246	DRSC00584	2.75e7	3.15e7	1.48e7	1.45e7	inactive
Pfdn6	DRSC10915	2.69e7	4.02e7	1.32e7	1.77e7	inactive
CG12170	DRSC12199	3.51e7	5.11e7	1.57e7	2.29e7	inactive
saturn	DRSC09303	2.87e7	3.08e7	1.36e7	1.47e7	inactive
UQCR-6.4	DRSC06454	4.49e7	5.71e7	1.84e7	2.59e7	inactive
CG17633	DRSC02631	3.59e7	4.12e7	1.70e7	1.83e7	inactive
salm	DRSC03606	4.88e7	5.89e7	2.34e7	2.40e7	inactive
Mnr	DRSC20549	3.81e7	3.93e7	2.22e7	1.80e7	inactive
Mnr	DRSC20550	3.88e7	4.12e7	2.19e7	1.76e7	inactive
Mnr	DRSC22441	4.60e7	4.16e7	2.30e7	1.95e7	inactive
kdn	DRSC18328	3.28e7	4.02e7	1.58e7	1.70e7	inactive
CG5107	DRSC15716	3.82e7	4.58e7	1.62e7	2.09e7	inactive
CG8157	DRSC07085	3.55e7	4.30e7	1.68e7	1.83e7	inactive
CG8157	DRSC21595	2.72e7	3.13e7	1.40e7	1.39e7	inactive
Orcokinin	DRSC04202	4.09e7	4.11e7	2.06e7	2.02e7	inactive
CG5435	DRSC02860	4.55e7	2.90e7	2.06e7	1.40e7	inactive
Dic4	DRSC10317	3.85e7	4.72e7	1.85e7	2.06e7	inactive
CG32071	DRSC22298	2.99e7	4.85e7	1.50e7	2.72e7	inactive
CG13005	DRSC19524	3.09e7	3.32e7	1.72e7	1.65e7	inactive
Idh	DRSC10779	3.97e7	2.90e7	2.54e7	1.17e7	inactive
CG3769	DRSC02723	3.08e7	4.94e7	1.47e7	2.08e7	inactive
Mesh1	DRSC14433	2.69e7	3.42e7	1.55e7	1.57e7	inactive
RhoL	DRSC16824	3.50e7	3.71e7	1.64e7	1.82e7	inactive
GlnRS	DRSC14140	2.47e7	2.84e7	1.27e7	1.46e7	inactive
Pka-C2	DRSC16790	3.27e7	3.66e7	1.82e7	2.05e7	inactive
Pka-C2	DRSC23310	3.21e7	3.54e7	1.67e7	1.73e7	inactive
CG3376	DRSC04362	3.90e7		1.97e7		inactive
Gr22c	DRSC22081	4.29e7	5.01e7	2.16e7	2.94e7	inactive
CG42854	DRSC19173	3.14e7	3.88e7	1.46e7	1.58e7	inactive
slp2	DRSC00836	3.80e7	3.25e7	1.92e7	1.62e7	inactive
cer	DRSC05992	4.64e7	5.37e7	2.08e7	2.53e7	inactive
Adck5	DRSC10890	2.55e7	4.79e7	1.32e7	1.99e7	inactive
CG14767	DRSC06500	4.13e7	4.37e7	1.74e7	2.00e7	inactive
CG10650	DRSC02085	5.85e7		2.65e7		inactive
CG1288	DRSC12538	4.92e7	3.51e7	2.18e7	1.63e7	inactive
Cht7 + tRNA:Cys-GCA-1-4 + tRNA:Lys-CTT-1-13	DRSC08021	1.50e7	4.43e7	8.89e6	1.94e7	inactive
SkpA	DRSC18833	4.19e7	4.94e7	2.76e7	2.81e7	inactive
mRpS21	DRSC12965	2.91e7	4.78e7	1.40e7	2.01e7	inactive
mRpS21	DRSC21357	2.90e7	4.54e7	1.56e7	1.75e7	inactive
Prp8	DRSC07293	2.41e7	2.30e7	1.62e7	1.47e7	inactive
Drat	DRSC06600	3.11e7	2.06e7	1.25e7	1.06e7	inactive
CG5921	DRSC17431	2.84e7	3.62e7	1.39e7	1.80e7	inactive
CG5921	DRSC18390	4.13e7	5.20e7	1.95e7	2.40e7	inactive
Duba	DRSC10582	4.07e7	2.52e7	2.71e7	1.11e7	inactive
RluA-1	DRSC02240	2.43e7	4.55e7	1.40e7	1.81e7	inactive
RluA-1	DRSC03060	4.64e7	5.30e7	2.30e7	2.29e7	inactive
CG15136	DRSC02436	3.54e7	2.44e7	1.61e7	1.21e7	inactive
CG34445	DRSC22404	2.00e7	2.78e7	1.09e7	1.27e7	inactive
CR18228	DRSC15317	4.74e7	3.82e7	2.27e7	1.77e7	inactive
aPKC	DRSC05515	3.04e7	4.61e7	1.42e7	1.90e7	inactive
aPKC	DRSC07639	3.48e7	4.03e7	1.79e7	1.79e7	inactive
btl	DRSC11331	3.27e7	3.44e7	1.45e7	1.40e7	inactive
Amyrel	DRSC05920	4.15e7	3.43e7	1.87e7	1.69e7	inactive
Der-1	DRSC00301	3.61e7		2.34e7		inactive
RpS18	DRSC07540	1.56e7	1.35e7	1.17e7	1.02e7	inactive
CG14304	DRSC14783	4.72e7	4.61e7	6.19e7	2.27e7	inactive
CdGAPr	DRSC03289	3.58e7	5.11e7	1.74e7	1.99e7	inactive
asRNA:CR42743 + CG34162	DRSC01190	3.48e7	4.32e7	1.85e7	1.91e7	inactive
